Experimental data reported in US20240131158A1 (Takeda / Millennium, published 2024).
These are yes or no findings as the source states them, for the method shown. Some entries that bind do so weakly or less than the wild type.

By UniProt entry, the sequences of proteins in these tests, tags left out. Residues count along the entry.
UniProt P37173, residues 23-159: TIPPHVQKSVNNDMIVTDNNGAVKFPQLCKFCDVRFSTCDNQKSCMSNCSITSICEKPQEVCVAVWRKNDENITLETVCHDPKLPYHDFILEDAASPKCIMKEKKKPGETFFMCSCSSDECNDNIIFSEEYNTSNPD

What was measured:
hTGFβR2-Fc [1] = molecular target: T1, hTGFβR2-Fc (human, UniProt P37173 23-159); experiment: ELISA, human recombinant TGFbR2-Fc as capture, mouse CAR-T supernatant, anti-flag HRP detection
T1 construct: Bought (RnD Systems); also called TGFbR2-Fc; human recombinant TGFbR2-Fc protein; not shown: Fc part of the bought fusion protein
Method: (§1) Supernatant from TGF-β modulating CAR-T cells were assayed by ELISA to detect anti-TGF-β and anti-TGFβR2 antibodies. Maxisorp 96 well plates were coated with recombinant human TGF-β […] or hTGFβR2-Fc (0.1 mg/ml; RnD System) in 100 μl coating buffer overnight at 4° C. Plates were washed with 1× wash buffer and blocked for 1 hour with reagent diluent at room temperature. CAR-T supernatant, recombinant TGFβR2-flag, or recombinant TGF-3-flag antibody was added and incubated for 2 hours at room temperature.
(§2) After another washing step, HRP-conjugated flag-tag antibody was added and incubated for 30 minutes at room temperature. Plates were washed and TMB substrate was added for 10-20 minutes. The reaction was stopped using Stop reagent and plates were read at 450 nm using a Pherastar Plate reader. ELISA using coated TGF-b detected high levels of TGF-b scFv VH-VL1 and TGF-b scFv VH-VL2 as compared to TGF-b scFv VL-VH using anti-flag tag HRP antibodies for binder detection (FIG. 3A). ELISA using coated TGFbR2-Fc detected high levels of TGFbR2 scFv VH-VL, TGFbR2 scFv VL-VH and hTGFbR2 VH1 from human CAR-T but was unable to detect mTGFbR2 VH1 (FIG. 3B). […]
(§3) Supernatant was harvested two days after transduction and frozen at −80′C until used for ELISA. […] Binding was detected using anti-flag HRP antibodies and the respective substrate. […]

hTGFβR2-Fc [2] = molecular target: T1, hTGFβR2-Fc; experiment: ELISA (figure legend)
Method: as §1, §2, §3

Binder | binding (hTGFβR2-Fc [1]) | binding (hTGFβR2-Fc [2])
hTGFbR2 VH2 G4S dimer (VHH, Flag-tagged; also called hTGFbR2-VH2 dimer) EVQLLESGGGLVQPGGSLRLSCAASGSTFTEYRMWWVRQAPGKGLEWVSAIEPIGHRTYYANSVRGRFTISRDNSKNTLYLQMNSLRAEDTAVYYCAKQAPGEKWARRWDLDYWGQGTLVTVSSGGGGSEVQLLESGGGLVQPGGSLRLSCAASGSTFTEYRMWWVRQAPGKGLEWVSAIEPIGHRTYYANSVRGRFTISRDNSKNTLYLQMNSLRAEDTAVYYCAKQAPGEKWARRWDLDYWGQGTLVTVSS | binds | binds
hTGFbR2 VH3 G4S dimer (VHH, It is built here from its name (VH3 - G4S - VH3); Flag-tagged; also called hTGFbR2-VH3 dimer) EVQLLESGGGLVQPGGSLRLSCAASGFTFGTDQMWWVRQAPGKGLEFVSRIDSPGGRTYYANSVKGRFTISRDNSKNTLYLQMNSLRAEDTAVYYCAKRQPAGVSGKYVDYWGQGTLVTVSSGGGGSEVQLLESGGGLVQPGGSLRLSCAASGFTFGTDQMWWVRQAPGKGLEFVSRIDSPGGRTYYANSVKGRFTISRDNSKNTLYLQMNSLRAEDTAVYYCAKRQPAGVSGKYVDYWGQGTLVTVSS | binds | binds
